Results reported in PMC10864410, “The pathogen-encoded signalling receptor Tir exploits host-like intrinsic disorder for infection” (Communications Biology, 2024).
Results are given in words; binding and its absence hold for the method and conditions named.

Amino acid sequences for entries named in this document (tags omitted). Residues count along the entry.
SBB-Tir, small beta-barrel construct of Tir (N-Tir 76-180) of EPEC O127:H6 (B7UM99, residues 76-180): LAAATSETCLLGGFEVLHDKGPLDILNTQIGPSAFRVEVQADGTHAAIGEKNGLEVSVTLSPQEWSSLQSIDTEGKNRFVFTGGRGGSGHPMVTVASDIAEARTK
UniProt B7UM99, residues 388-550: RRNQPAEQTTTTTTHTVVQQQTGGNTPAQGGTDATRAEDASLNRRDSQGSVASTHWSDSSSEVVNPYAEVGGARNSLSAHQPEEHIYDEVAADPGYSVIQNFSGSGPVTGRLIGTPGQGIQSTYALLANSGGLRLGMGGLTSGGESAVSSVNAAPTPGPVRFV

What was measured:
[1] = target: C-Tir, C-terminal cytosolic region of Tir of EPEC O127:H6, residues 388-550, unphosphorylated (Enteropathogenic E. coli (EPEC) O127:H6) (UniProt B7UM99); assay: SEC-SAXS; analytical SEC with SAXS, BM29 beamline, Superdex 200 Increase 3.2/300; 20 mM phosphate pH 6.5, 150 mM NaCl, 1 mM EDTA; monomeric single-peak region; both purified
[2] = target: SBB-Tir, small beta-barrel construct of Tir (N-Tir 76-180) of EPEC O127:H6 (Enteropathogenic E. coli (EPEC) O127:H6) (UniProt B7UM99); assay: SEC-SAXS; synchrotron SEC-SAXS of SBB-Tir; molecular weight of a monomer, in line with the gel filtration retention volume; conditions for this construct not told; both purified

Row | Substance | binding [1] | binding [2]
1 | C-Tir, C-terminal cytosolic region of Tir of EPEC O127:H6, residues 388-550, unphosphorylated (from UniProt B7UM99 388-550) (domain or fragment) | no binding | –
2 | SBB-Tir, small beta-barrel construct of Tir (N-Tir 76-180) of EPEC O127:H6 (from UniProt B7UM99 76-180) (domain or fragment) | – | no binding
